Reference: publication PMC10499909
The exact form of at least one protein or probe is not confirmed. At least one verdict rests on a figure or table, not on a statement of the authors.

Amino acid sequences for entries named in this document (tags omitted). Residues count along the entry.
UniProt P24627, 20-708: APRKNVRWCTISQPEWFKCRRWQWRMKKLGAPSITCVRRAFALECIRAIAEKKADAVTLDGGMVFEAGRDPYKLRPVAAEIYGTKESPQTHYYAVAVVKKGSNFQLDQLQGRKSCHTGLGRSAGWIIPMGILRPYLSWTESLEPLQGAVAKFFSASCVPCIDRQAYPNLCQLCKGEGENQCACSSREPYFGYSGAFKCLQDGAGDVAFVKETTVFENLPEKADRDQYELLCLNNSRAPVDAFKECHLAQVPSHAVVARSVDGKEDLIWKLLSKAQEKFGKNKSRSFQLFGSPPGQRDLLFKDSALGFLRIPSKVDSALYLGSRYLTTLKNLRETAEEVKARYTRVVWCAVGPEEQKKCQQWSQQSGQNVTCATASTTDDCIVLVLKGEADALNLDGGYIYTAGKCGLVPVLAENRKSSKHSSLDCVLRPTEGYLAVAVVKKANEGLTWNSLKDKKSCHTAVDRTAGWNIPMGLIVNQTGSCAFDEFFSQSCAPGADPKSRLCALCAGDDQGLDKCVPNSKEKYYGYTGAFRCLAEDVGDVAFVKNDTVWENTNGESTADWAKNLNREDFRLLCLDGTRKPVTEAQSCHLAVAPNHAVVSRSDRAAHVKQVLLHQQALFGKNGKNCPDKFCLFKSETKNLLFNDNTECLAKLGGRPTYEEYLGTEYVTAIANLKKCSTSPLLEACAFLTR
UniProt P02788, 20-710: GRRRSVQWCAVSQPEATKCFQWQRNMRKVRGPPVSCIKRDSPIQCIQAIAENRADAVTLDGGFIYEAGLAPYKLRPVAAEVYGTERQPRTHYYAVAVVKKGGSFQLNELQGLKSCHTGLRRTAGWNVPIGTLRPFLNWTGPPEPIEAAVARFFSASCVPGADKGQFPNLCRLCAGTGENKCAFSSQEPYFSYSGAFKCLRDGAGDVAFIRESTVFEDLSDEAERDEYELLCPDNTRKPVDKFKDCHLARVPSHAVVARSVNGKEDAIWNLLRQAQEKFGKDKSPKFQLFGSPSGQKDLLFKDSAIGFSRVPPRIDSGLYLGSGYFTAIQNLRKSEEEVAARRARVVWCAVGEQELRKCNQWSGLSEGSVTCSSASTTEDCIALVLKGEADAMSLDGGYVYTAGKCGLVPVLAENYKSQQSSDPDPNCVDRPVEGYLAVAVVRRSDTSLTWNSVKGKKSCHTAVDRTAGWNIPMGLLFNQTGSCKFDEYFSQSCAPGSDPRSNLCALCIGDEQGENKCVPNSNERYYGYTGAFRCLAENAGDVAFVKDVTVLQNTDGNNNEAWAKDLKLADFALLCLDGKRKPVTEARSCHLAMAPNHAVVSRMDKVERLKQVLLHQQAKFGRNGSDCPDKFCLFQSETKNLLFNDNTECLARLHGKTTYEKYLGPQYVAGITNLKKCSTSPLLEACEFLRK

Legend:
[1] = molecular target: lactoferrin (bovine colostrum, L4765) (Bos taurus (bovine)) (UniProt P24627); assay: fluorescence polarization, displacement from graphene oxide; conditions: graphene oxide nanosheets, LF 2-10 ug/mL, LOD 1.397 ug/mL; 5'-amino, conjugated to carbon dots (EDC/NHS); PBS pH 6.8, 37 °C, 30 min in dark; CDs-aptamer 0.05 mg/mL with graphene oxide nanosheets; commercial protein; label: carbon dots (fluorescent); single-stranded DNA
[2] = molecular target: lactoferrin (human tear) (human) (UniProt P02788); assay: as above; conditions: graphene oxide nanosheets, human tear sample, 3.32 mg/mL LF measured; 5'-amino, conjugated to carbon dots (EDC/NHS); PBS pH 6.8, 37 °C, 30 min in dark; CDs-aptamer 0.05 mg/mL with graphene oxide nanosheets; native protein; label: carbon dots (fluorescent); single-stranded DNA

## AGGCAGGACACCGTAACCGGTGCATCTATGGCTACTAGCTCTTCCTGCCT [LF aptamer on carbon dots (CDs-aptamer)]
[1]
  binding result: binds
[2]
  binding result: binds
